This data set has as its system rats. As to the kind of experiment: Locomotor activity test. Conditions: 30 min post dose. It is filed as in vivo, Male Sprague Dawley rats. Here is the method: Male Sprague Dawley rats 200-300 g (Charles River, Margate, U.K.) were housed in group of five per cage under a 12 h light/dark cycle with food and water available ad libitum. Each experiment was carried out with groups of at minimum 7 rats. All procedures in this study were performed in accordance with the Home Office Animals (Scientific Procedures) Act 1986 and accordingly with our Project License, after the experiment, animals were sacrificed by schedule 1 method.
The spontaneous locomotor activity of rats in a novel environment was monitored for 30 min in a 35×20 cm Perspex chamber. The cage was equipped with two series photocells located at 2 and 15 cm above the floor (San Diego Instruments, CA, USA). To measure drug-induced decrease locomotion such as morphine and gabapentin, at a pre-defined time post drug administration, each animal was placed in the centre of the cage. To measure drug-induced increase in locomotion such as phencyclidine (PCP) rats were placed in the cage at least 30 min before recording. total activity (ambulation and rearing) was monitored every 5 min for 30 min.
In the locomotor activity task, total counts are the sum of horizontal and vertical movements (photo beam breaks) in 30 minutes recording. For PCP vertical and horizontal activity are analysed separately. Data were expressed as the arithmetic mean ±SEM and analysed by ANOVA. In the beam walking test, the time to cross the beam (seconds) and the number of foot slips were expressed as mean ±SEM and analysed by ANOVA and Mann Whitney U test, respectively.

Consider one compound from US20080294071A1, “Assay Method” (priority 2004, published 2008).

Each structure is given as a SMILES string.

Take `CN1CC[C@]23c4c5ccc(O)c4O[C@H]2[C@@H](O)C=C[C@H]3[C@H]1C5.O=S(=O)(O)O` [Morphine sulphate]: for the setting “3 mg/kg SC”, the “reduction of exploratory behaviour with respect to controls activity” value was “up to 67%”. Also, for the setting “10 mg/kg SC”, the “reduction of movement vs spontaneous activity of vehicle-treated rats” value is “up to 93%”. The “spontaneous activity, effect of dose” value (1, 3 and 10 mg/kg SC, naive rats, p<0.01) was “dose dependent decrease”. Besides, the “MED in locomotor activity test” value (SC) came to 3 mg/kg.
